Consider one molecule from patent publication US20110076272A1, “THERAPEUTIC METHODS AND COMPOSITIONS” (priority 2009, published 2011).

The chains behind the UniProt entries cited, without tags or fusion partners. Where a name states a change or a piece, a line headed by the entry shows the natural chain unless it says otherwise.
UniProt Q08397: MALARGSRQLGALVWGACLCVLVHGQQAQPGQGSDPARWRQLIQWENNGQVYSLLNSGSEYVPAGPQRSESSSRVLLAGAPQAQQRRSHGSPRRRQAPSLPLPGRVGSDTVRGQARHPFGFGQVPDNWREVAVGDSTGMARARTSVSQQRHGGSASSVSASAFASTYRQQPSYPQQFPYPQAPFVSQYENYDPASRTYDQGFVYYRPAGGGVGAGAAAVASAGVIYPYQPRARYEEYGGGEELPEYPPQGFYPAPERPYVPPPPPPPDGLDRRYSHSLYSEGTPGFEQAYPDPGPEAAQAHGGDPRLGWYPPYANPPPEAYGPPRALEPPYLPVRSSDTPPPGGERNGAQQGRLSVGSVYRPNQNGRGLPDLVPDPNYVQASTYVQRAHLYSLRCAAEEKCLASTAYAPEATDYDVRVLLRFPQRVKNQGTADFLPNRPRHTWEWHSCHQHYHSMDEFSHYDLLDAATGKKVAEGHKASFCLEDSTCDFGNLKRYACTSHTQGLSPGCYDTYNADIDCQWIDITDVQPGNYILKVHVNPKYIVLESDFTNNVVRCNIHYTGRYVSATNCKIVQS

Results are given in words; binding and its absence hold for the method and conditions named.

The target in assay [1] is lysyl oxidase-like 1 (LOXL1) (UniProt Q08397). Briefly: Western blot and ELISA (FIG. 8, panels M, N).
For assay [2] the target is unchanged. Put plainly: Western blot probed with AB0023 [Cont. 2) panel m]. A general note: In western blotting, separated proteins are transferred to a membrane and probed.
The target is the same in assay [3]. Briefly: ELISA, AB0023 titrated on hLOXL1 [Cont. 2) panel n]. (ELISA stands for enzyme-linked immunosorbent assay.)

B1: anti-LOXL2 monoclonal antibody AB0023 (antibody, V domains shown)
VH: QVQLQQSGAELVRPGTSVKVSCKASGYAFTYYLIEWVKQRPGQGLEWIGVINPGSGGTNYNEKFKGKATLTADKSSSTAYMQLSSLTSDDSAVYFCARNWMNFDYWGQGTTLTVSS
VL: DIVMTQAAPSVSVTPGESVSISCRSSKSLLHSNGNTYLYWFLQRPGQSPQFLIYRMSNLASGVPDRFSGSGSGTAFTLRISRVEAEDVGVYYCMQHLEYPYTFGGGTKLEIK
notes: Mouse monoclonal antibody from a hybridoma, raised against full-length LOXL2 and purified from ascites; also called mouse anti-human LOXL2 antibody; LOXL2-specific monoclonal antibody
As to B1, the binding result was “no binding” in assay [1], “no binding” in assay [2] and “no binding (tested: 100 nM)” in assay [3].
